Data from the supplement of paper PMC12823440, “Inhibitors supercharge kinase turnover through native proteolytic circuits” (Nature, 2025).
Structures can show the parent of a compound that is named as a salt. The list shows a part of the results. Hit calls seldom repeat between salt and free forms of one compound.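 Kinases were expressed as nanoluciferase fusions in K562 cells and luminescence was read every 4 h between 2 and 18 h as percent of control, DMSO set to 100% and a positive control to 0%. A time point counts as decreased when the signal drops significantly (2 sigma). The hit call is the authors' own, does not follow from the count of time points alone, and its rule is not shown.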

Protein sequences, listed by entry. Tags and fused reporters are not part of them. Lines headed by an entry give the natural chain unless they say otherwise; changes in a name come on top.
UniProt Q9UM73: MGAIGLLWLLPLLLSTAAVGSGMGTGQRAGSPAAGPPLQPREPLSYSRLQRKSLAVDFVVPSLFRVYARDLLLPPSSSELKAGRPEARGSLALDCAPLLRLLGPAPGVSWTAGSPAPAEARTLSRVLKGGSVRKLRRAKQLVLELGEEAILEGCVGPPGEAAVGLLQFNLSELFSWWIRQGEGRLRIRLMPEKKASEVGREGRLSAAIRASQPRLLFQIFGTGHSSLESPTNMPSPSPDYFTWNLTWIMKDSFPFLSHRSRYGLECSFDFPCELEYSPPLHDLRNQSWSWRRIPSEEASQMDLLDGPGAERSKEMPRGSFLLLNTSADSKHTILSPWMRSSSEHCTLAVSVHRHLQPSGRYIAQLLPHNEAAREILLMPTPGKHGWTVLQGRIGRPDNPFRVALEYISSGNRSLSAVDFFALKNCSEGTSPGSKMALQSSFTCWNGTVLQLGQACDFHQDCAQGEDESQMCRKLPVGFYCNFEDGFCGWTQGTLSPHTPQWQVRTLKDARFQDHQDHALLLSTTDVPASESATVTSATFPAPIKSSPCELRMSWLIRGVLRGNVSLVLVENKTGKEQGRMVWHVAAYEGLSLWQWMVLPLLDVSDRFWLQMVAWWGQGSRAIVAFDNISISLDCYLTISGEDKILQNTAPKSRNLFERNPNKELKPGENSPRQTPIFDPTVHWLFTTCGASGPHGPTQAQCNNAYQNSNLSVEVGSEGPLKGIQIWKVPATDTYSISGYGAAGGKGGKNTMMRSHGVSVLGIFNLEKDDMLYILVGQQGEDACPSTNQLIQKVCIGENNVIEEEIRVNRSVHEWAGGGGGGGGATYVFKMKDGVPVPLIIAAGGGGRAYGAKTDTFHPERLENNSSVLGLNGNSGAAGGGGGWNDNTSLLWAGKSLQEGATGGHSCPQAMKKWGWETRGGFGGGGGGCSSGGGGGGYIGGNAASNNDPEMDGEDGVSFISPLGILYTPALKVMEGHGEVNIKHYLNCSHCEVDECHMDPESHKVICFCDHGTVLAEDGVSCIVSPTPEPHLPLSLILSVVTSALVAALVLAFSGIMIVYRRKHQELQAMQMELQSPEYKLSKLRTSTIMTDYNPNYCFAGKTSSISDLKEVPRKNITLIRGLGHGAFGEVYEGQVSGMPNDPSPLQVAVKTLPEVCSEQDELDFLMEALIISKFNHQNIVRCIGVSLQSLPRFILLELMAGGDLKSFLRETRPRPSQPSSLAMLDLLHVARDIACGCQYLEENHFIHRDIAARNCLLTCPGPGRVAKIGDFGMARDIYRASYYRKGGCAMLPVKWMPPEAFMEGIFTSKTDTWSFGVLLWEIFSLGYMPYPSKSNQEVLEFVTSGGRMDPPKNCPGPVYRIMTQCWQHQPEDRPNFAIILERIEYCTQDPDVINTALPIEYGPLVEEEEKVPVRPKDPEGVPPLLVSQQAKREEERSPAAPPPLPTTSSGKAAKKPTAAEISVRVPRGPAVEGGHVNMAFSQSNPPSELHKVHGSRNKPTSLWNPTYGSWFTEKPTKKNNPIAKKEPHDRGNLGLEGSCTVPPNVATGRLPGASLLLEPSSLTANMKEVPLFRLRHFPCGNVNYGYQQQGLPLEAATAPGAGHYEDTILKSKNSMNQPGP
UniProt P10398: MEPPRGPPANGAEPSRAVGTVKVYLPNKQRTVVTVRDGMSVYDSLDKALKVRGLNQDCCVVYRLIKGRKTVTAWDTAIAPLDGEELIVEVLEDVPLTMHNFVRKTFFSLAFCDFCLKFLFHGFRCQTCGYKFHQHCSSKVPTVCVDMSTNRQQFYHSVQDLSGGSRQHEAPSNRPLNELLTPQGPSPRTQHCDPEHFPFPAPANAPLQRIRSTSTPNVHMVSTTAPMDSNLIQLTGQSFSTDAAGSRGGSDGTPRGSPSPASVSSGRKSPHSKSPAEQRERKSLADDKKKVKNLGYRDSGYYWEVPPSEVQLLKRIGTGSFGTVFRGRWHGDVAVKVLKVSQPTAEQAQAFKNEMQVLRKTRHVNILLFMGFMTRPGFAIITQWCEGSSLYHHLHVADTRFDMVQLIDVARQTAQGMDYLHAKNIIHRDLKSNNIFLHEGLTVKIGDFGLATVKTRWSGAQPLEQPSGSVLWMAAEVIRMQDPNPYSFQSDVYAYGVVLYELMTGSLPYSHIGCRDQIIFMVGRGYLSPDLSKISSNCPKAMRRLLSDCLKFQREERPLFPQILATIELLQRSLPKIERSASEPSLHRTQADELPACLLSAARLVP
UniProt Q96GD4, whole entry: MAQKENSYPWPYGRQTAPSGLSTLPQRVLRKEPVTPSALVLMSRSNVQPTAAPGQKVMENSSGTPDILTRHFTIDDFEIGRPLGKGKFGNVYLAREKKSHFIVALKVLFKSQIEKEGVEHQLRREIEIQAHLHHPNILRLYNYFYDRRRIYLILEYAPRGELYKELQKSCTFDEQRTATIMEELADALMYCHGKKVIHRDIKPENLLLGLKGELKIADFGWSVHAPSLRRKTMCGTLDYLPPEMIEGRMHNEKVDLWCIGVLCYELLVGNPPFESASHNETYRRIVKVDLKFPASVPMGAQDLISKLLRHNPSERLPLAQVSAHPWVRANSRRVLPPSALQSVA
UniProt Q9UQB9: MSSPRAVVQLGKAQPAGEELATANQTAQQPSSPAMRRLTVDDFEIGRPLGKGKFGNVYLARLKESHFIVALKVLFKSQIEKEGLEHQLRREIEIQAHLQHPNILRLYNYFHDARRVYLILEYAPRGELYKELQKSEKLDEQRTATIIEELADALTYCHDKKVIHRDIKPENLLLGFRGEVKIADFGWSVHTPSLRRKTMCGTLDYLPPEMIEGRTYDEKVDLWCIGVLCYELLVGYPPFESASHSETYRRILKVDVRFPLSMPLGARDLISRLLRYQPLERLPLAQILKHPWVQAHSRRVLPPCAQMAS
UniProt P51451: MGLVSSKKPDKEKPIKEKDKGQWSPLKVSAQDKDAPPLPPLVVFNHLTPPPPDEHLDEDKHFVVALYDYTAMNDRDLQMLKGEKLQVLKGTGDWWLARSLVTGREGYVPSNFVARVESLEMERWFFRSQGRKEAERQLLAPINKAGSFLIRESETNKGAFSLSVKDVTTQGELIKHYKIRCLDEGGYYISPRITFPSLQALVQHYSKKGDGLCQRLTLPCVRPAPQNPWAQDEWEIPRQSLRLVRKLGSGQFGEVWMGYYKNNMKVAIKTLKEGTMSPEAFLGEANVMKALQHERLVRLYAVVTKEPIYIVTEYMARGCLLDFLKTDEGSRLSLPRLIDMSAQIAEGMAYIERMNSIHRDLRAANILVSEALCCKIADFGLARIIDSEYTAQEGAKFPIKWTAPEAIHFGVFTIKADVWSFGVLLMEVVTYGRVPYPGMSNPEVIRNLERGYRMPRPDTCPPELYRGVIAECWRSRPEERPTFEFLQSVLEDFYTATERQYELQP
UniProt Q06187: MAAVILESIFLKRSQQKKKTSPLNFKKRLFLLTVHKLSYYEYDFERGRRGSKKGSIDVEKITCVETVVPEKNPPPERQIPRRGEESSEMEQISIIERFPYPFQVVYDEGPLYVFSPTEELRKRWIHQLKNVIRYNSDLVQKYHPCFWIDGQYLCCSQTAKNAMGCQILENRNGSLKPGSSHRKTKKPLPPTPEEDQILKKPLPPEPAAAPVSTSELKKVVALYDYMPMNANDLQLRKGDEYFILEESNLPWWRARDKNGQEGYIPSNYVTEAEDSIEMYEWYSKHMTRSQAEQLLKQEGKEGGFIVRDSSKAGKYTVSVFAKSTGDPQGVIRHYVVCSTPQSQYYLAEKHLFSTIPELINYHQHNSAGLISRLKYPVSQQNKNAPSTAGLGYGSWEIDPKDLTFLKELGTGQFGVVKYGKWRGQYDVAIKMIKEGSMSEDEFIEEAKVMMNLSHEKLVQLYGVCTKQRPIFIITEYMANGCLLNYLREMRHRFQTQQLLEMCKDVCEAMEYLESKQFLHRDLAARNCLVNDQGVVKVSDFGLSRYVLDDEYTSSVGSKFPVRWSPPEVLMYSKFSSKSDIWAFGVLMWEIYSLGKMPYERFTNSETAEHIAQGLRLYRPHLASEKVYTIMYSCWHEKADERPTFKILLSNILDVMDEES
UniProt Q9UQM7, whole entry: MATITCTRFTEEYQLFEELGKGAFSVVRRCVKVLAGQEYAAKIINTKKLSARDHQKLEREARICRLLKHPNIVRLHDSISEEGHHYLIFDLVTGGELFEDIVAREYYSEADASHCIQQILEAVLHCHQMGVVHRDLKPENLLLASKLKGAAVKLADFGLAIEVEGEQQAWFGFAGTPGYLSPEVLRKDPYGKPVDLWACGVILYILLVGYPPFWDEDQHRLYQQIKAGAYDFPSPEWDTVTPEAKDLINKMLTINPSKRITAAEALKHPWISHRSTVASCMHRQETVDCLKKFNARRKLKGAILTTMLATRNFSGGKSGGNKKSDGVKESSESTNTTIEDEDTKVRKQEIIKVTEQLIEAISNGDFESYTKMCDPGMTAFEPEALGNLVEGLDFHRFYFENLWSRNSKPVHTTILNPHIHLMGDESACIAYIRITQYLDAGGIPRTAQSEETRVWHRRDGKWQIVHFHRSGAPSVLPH
UniProt Q13555: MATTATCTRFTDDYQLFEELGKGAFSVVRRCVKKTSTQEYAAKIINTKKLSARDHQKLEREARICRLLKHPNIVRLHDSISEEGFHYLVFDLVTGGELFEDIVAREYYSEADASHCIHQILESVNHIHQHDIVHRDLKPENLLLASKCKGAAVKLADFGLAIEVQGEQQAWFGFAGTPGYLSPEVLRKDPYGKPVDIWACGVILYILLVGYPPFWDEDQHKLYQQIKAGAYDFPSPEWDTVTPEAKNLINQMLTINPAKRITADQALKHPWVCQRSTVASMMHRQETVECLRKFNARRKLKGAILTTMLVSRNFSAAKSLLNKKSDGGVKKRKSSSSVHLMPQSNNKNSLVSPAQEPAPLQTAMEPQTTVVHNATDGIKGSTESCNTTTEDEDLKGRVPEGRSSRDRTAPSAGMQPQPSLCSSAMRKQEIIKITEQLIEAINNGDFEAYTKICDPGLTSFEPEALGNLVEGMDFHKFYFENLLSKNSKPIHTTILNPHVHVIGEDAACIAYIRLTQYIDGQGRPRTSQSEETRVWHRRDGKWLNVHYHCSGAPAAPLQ
UniProt Q15131: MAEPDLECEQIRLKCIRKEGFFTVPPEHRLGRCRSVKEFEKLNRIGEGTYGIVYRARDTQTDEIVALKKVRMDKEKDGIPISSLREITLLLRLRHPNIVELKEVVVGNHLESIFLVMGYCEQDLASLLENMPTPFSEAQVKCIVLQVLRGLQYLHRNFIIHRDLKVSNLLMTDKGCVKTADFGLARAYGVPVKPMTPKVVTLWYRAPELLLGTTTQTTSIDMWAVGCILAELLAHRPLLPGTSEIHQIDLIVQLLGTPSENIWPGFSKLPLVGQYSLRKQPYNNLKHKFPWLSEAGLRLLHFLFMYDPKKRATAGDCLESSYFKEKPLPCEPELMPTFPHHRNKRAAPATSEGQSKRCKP
UniProt Q00526: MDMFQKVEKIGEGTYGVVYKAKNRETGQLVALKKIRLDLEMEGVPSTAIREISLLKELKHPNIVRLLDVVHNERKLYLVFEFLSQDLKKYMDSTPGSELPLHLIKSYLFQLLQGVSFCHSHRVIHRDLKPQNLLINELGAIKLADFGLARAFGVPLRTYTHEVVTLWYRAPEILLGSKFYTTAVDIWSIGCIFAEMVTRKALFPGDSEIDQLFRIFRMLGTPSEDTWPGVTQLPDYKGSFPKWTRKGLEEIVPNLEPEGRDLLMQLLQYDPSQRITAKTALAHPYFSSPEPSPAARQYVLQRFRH
UniProt P11802: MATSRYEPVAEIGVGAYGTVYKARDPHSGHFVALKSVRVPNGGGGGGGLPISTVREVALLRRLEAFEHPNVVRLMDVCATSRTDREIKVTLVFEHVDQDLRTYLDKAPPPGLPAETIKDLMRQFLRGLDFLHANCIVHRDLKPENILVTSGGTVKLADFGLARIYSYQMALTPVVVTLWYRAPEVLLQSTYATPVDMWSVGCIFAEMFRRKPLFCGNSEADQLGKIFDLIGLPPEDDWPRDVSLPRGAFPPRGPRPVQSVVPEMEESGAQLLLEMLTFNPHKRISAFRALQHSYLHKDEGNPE
UniProt Q00535, whole entry, looked up: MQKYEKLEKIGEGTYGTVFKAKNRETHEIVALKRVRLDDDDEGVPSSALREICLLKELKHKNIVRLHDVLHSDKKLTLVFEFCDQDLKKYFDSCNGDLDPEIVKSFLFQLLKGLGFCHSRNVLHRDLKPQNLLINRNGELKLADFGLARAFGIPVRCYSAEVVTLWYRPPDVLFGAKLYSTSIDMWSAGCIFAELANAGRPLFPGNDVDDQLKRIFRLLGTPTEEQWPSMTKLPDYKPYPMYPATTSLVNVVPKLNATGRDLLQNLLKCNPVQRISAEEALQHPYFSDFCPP

Experiments:
Test in all cases: kinase-Nluc reporter destabilization hit call (1 = scored as downregulated) (binary); higher = compound decreases kinase abundance
Conditions in all cases: K562; 2-18 h
ABL1 = ABL1 (UniProt P00519)
AKT1 = AKT1 (UniProt P31749)
ALK = ALK (UniProt Q9UM73)
ARAF = ARAF (UniProt P10398)
AURKA = AURKA (UniProt O14965)
AURKB = AURKB (UniProt Q96GD4)
AURKC = AURKC (UniProt Q9UQB9)
BLK = BLK (UniProt P51451)
BMX = BMX (UniProt P51813)
BRAF = BRAF (UniProt P15056)
BRAF_V600E = tested on: BRAF_V600E
BTK = BTK (UniProt Q06187)
CAMK2A = CAMK2A (UniProt Q9UQM7)
CAMK2G = CAMK2G (UniProt Q13555)
CDK10 = CDK10 (UniProt Q15131)
CDK2 = CDK2 (UniProt P24941)
CDK3 = CDK3 (UniProt Q00526)
CDK4 = CDK4 (UniProt P11802)
CDK5 = CDK5 (UniProt Q00535)
CDK6 = CDK6 (UniProt Q00534)

Row | SMILES | kinase-Nluc reporter destabilization hit call (ABL1) | kinase-Nluc reporter destabilization hit call (AKT1) | kinase-Nluc reporter destabilization hit call (ALK) | kinase-Nluc reporter destabilization hit call (ARAF) | kinase-Nluc reporter destabilization hit call (AURKA) | kinase-Nluc reporter destabilization hit call (AURKB) | kinase-Nluc reporter destabilization hit call (AURKC) | kinase-Nluc reporter destabilization hit call (BLK) | kinase-Nluc reporter destabilization hit call (BMX) | kinase-Nluc reporter destabilization hit call (BRAF) | kinase-Nluc reporter destabilization hit call (BRAF_V600E) | kinase-Nluc reporter destabilization hit call (BTK) | kinase-Nluc reporter destabilization hit call (CAMK2A) | kinase-Nluc reporter destabilization hit call (CAMK2G) | kinase-Nluc reporter destabilization hit call (CDK10) | kinase-Nluc reporter destabilization hit call (CDK2) | kinase-Nluc reporter destabilization hit call (CDK3) | kinase-Nluc reporter destabilization hit call (CDK4) | kinase-Nluc reporter destabilization hit call (CDK5) | kinase-Nluc reporter destabilization hit call (CDK6)
1 | OCCN(CCO)c1ccc(C(c2ccc(Cl)cc2)c2ccc(N(CCO)CCO)cc2)cc1 (10 µM) | inactive: 0 | inactive: 0 | inactive: 0 | inactive: 0 | inactive: 0 | inactive: 0 | inactive: 0 | inactive: 0 | inactive: 0 | inactive: 0 | inactive: 0 | inactive: 0 | inactive: 0 | inactive: 0 | inactive: 0 | inactive: 0 | inactive: 0 | inactive: 0 | inactive: 0 | inactive: 0
2 | CCCNC(=O)c1cn2ncnc(Nc3cc(C(=O)NC4CC4)ccc3C)c2c1C (10 µM) | inactive: 0 | inactive: 0 | inactive: 0 | inactive: 0 | inactive: 0 | inactive: 0 | inactive: 0 | inactive: 0 | inactive: 0 | inactive: 0 | inactive: 0 | inactive: 0 | inactive: 0 | inactive: 0 | inactive: 0 | inactive: 0 | inactive: 0 | inactive: 0 | inactive: 0 | inactive: 0
3 | C[C@@H]1COCCN1c1cc(C2([S@](C)(=N)=O)CC2)nc(-c2cc[nH]c3nccc2-3)n1 [Ceralasertib] (2.5 µM) | inactive: 0 | inactive: 0 | inactive: 0 | inactive: 0 | inactive: 0 | inactive: 0 | inactive: 0 | inactive: 0 | inactive: 0 | inactive: 0 | inactive: 0 | inactive: 0 | inactive: 0 | inactive: 0 | inactive: 0 | inactive: 0 | inactive: 0 | inactive: 0 | inactive: 0 | inactive: 0
4 | COc1ccccc1/C=C1\C(=O)Nc2ccccc21 (10 µM) | inactive: 0 | inactive: 0 | inactive: 0 | inactive: 0 | inactive: 0 | inactive: 0 | inactive: 0 | inactive: 0 | inactive: 0 | inactive: 0 | inactive: 0 | inactive: 0 | inactive: 0 | inactive: 0 | inactive: 0 | inactive: 0 | inactive: 0 | inactive: 0 | inactive: 0 | inactive: 0
5 | CCN1/C(=C/C(C)=O)Sc2ccc(OC)cc21 (10 µM) | inactive: 0 | inactive: 0 | inactive: 0 | inactive: 0 | inactive: 0 | inactive: 0 | inactive: 0 | inactive: 0 | inactive: 0 | inactive: 0 | active: 1 | inactive: 0 | inactive: 0 | inactive: 0 | inactive: 0 | inactive: 0 | inactive: 0 | inactive: 0 | inactive: 0 | inactive: 0
6 | CC(C)(C)C(=O)N1N=CC[C@H]1c1ccccc1 (10 µM) | inactive: 0 | inactive: 0 | inactive: 0 | inactive: 0 | inactive: 0 | inactive: 0 | inactive: 0 | inactive: 0 | inactive: 0 | inactive: 0 | inactive: 0 | inactive: 0 | inactive: 0 | inactive: 0 | inactive: 0 | inactive: 0 | inactive: 0 | inactive: 0 | inactive: 0 | inactive: 0
7 | CCn1nc(C2CCN(C(=O)CCO)CC2)nc1-c1cnc(N)c(-c2nnc(C(C)(C)C)o2)n1 (10 µM) | inactive: 0 | inactive: 0 | inactive: 0 | inactive: 0 | inactive: 0 | inactive: 0 | inactive: 0 | inactive: 0 | inactive: 0 | inactive: 0 | inactive: 0 | inactive: 0 | inactive: 0 | inactive: 0 | inactive: 0 | inactive: 0 | inactive: 0 | inactive: 0 | inactive: 0 | inactive: 0
8 | COc1ccc2c(=O)c(-c3ccccc3)coc2c1 [7-Methoxyisoflavone] (10 µM) | inactive: 0 | inactive: 0 | inactive: 0 | inactive: 0 | active: 1 | inactive: 0 | inactive: 0 | inactive: 0 | inactive: 0 | inactive: 0 | inactive: 0 | inactive: 0 | inactive: 0 | inactive: 0 | inactive: 0 | inactive: 0 | inactive: 0 | inactive: 0 | inactive: 0 | inactive: 0
9 | COc1ccc(CN2C3CC2CN(c2ccc(-c4cc(OCC(C)(C)O)cn5ncc(C#N)c45)cn2)C3)cn1 [Selpercatinib] (10 µM) | inactive: 0 | inactive: 0 | inactive: 0 | inactive: 0 | inactive: 0 | inactive: 0 | inactive: 0 | inactive: 0 | inactive: 0 | inactive: 0 | inactive: 0 | inactive: 0 | inactive: 0 | inactive: 0 | inactive: 0 | inactive: 0 | inactive: 0 | inactive: 0 | inactive: 0 | active: 1
10 | Nc1nc2cc(-c3ccc4ncc(C(=O)N5CCOCC5)n4c3)ccc2o1 [Serabelisib] (10 µM) | inactive: 0 | inactive: 0 | inactive: 0 | inactive: 0 | inactive: 0 | inactive: 0 | inactive: 0 | inactive: 0 | inactive: 0 | inactive: 0 | inactive: 0 | inactive: 0 | inactive: 0 | inactive: 0 | inactive: 0 | inactive: 0 | inactive: 0 | inactive: 0 | inactive: 0 | inactive: 0
11 | Oc1ccccc1C(=S)N1CCCC1 (10 µM) | inactive: 0 | inactive: 0 | inactive: 0 | inactive: 0 | inactive: 0 | inactive: 0 | inactive: 0 | inactive: 0 | inactive: 0 | inactive: 0 | inactive: 0 | inactive: 0 | inactive: 0 | inactive: 0 | inactive: 0 | inactive: 0 | inactive: 0 | inactive: 0 | inactive: 0 | inactive: 0
12 | O=C(O)c1cc(O)c2c(c1)[C@@H]([C@H]1c3cc(C(=O)O)cc(O)c3C(=O)c3c(O[C@@H]4O[C@H](CO)[C@@H](O)[C@H](O)[C@H]4O)cccc31)c1cccc(O[C@@H]3O[C@H](CO)[C@@H](O)[C@H](O)[C@H]3O)c1C2=O [Sennoside B] (2.5 µM) | inactive: 0 | inactive: 0 | inactive: 0 | inactive: 0 | inactive: 0 | inactive: 0 | inactive: 0 | inactive: 0 | inactive: 0 | inactive: 0 | inactive: 0 | inactive: 0 | inactive: 0 | inactive: 0 | inactive: 0 | inactive: 0 | inactive: 0 | inactive: 0 | inactive: 0 | inactive: 0
13 | COc1cc2ncnc(Nc3ccc(NC(=O)c4ccccc4)cc3)c2cc1OC [Aurora kinase inhibitor-2] (2.5 µM) | inactive: 0 | inactive: 0 | inactive: 0 | inactive: 0 | inactive: 0 | inactive: 0 | inactive: 0 | inactive: 0 | inactive: 0 | inactive: 0 | inactive: 0 | inactive: 0 | inactive: 0 | inactive: 0 | inactive: 0 | inactive: 0 | inactive: 0 | inactive: 0 | inactive: 0 | inactive: 0
14 | CCCCOc1ccc(CC/C=C2\SC(=O)N(CCN)C2=O)cc1 [K145 (hydrochloride)] (2.5 µM) | inactive: 0 | inactive: 0 | inactive: 0 | inactive: 0 | inactive: 0 | inactive: 0 | inactive: 0 | inactive: 0 | inactive: 0 | inactive: 0 | inactive: 0 | inactive: 0 | inactive: 0 | inactive: 0 | inactive: 0 | inactive: 0 | inactive: 0 | inactive: 0 | inactive: 0 | inactive: 0
15 | c1ccc(-c2nn3c(c2-c2ccnc4cc(OCCN5CCOCC5)ccc24)CCC3)nc1 (10 µM) | inactive: 0 | inactive: 0 | inactive: 0 | inactive: 0 | inactive: 0 | inactive: 0 | inactive: 0 | inactive: 0 | inactive: 0 | inactive: 0 | inactive: 0 | inactive: 0 | inactive: 0 | inactive: 0 | inactive: 0 | inactive: 0 | inactive: 0 | inactive: 0 | inactive: 0 | inactive: 0
16 | CC(C)Oc1ccc(-c2cnc3c(-c4ccnc5ccccc45)cnn3c2)cc1 (10 µM) | inactive: 0 | inactive: 0 | inactive: 0 | inactive: 0 | inactive: 0 | inactive: 0 | inactive: 0 | inactive: 0 | inactive: 0 | inactive: 0 | inactive: 0 | inactive: 0 | inactive: 0 | inactive: 0 | inactive: 0 | inactive: 0 | inactive: 0 | inactive: 0 | inactive: 0 | inactive: 0
17 | Cn1cc(-c2cc3c(N4CCN(c5ncc([C@@](C)(N)c6ccc(F)cc6)cn5)CC4)ncnn3c2)cn1 [Avapritinib] (2.5 µM) | inactive: 0 | inactive: 0 | inactive: 0 | inactive: 0 | inactive: 0 | inactive: 0 | inactive: 0 | inactive: 0 | inactive: 0 | inactive: 0 | inactive: 0 | inactive: 0 | inactive: 0 | inactive: 0 | inactive: 0 | inactive: 0 | inactive: 0 | inactive: 0 | inactive: 0 | inactive: 0
18 | CN1C(=O)NC(Cc2c[nH]c3c(Cl)cccc23)C1=O (racemic) [Necrostatin 2 (racemate)] (10 µM) | inactive: 0 | inactive: 0 | inactive: 0 | inactive: 0 | inactive: 0 | inactive: 0 | inactive: 0 | inactive: 0 | inactive: 0 | inactive: 0 | inactive: 0 | inactive: 0 | inactive: 0 | inactive: 0 | inactive: 0 | inactive: 0 | inactive: 0 | inactive: 0 | inactive: 0 | inactive: 0

A draw from above in order of molar mass, ascending.
Row | SMILES | kinase-Nluc reporter destabilization hit call (ABL1) | kinase-Nluc reporter destabilization hit call (AKT1) | kinase-Nluc reporter destabilization hit call (ALK) | kinase-Nluc reporter destabilization hit call (ARAF) | kinase-Nluc reporter destabilization hit call (AURKA) | kinase-Nluc reporter destabilization hit call (AURKB) | kinase-Nluc reporter destabilization hit call (AURKC) | kinase-Nluc reporter destabilization hit call (BLK) | kinase-Nluc reporter destabilization hit call (BMX) | kinase-Nluc reporter destabilization hit call (BRAF) | kinase-Nluc reporter destabilization hit call (BRAF_V600E) | kinase-Nluc reporter destabilization hit call (BTK) | kinase-Nluc reporter destabilization hit call (CAMK2A) | kinase-Nluc reporter destabilization hit call (CAMK2G) | kinase-Nluc reporter destabilization hit call (CDK10) | kinase-Nluc reporter destabilization hit call (CDK2) | kinase-Nluc reporter destabilization hit call (CDK3) | kinase-Nluc reporter destabilization hit call (CDK4) | kinase-Nluc reporter destabilization hit call (CDK5) | kinase-Nluc reporter destabilization hit call (CDK6)
6 | CC(C)(C)C(=O)N1N=CC[C@H]1c1ccccc1 (10 µM) | inactive: 0 | inactive: 0 | inactive: 0 | inactive: 0 | inactive: 0 | inactive: 0 | inactive: 0 | inactive: 0 | inactive: 0 | inactive: 0 | inactive: 0 | inactive: 0 | inactive: 0 | inactive: 0 | inactive: 0 | inactive: 0 | inactive: 0 | inactive: 0 | inactive: 0 | inactive: 0
10 | Nc1nc2cc(-c3ccc4ncc(C(=O)N5CCOCC5)n4c3)ccc2o1 [Serabelisib] (10 µM) | inactive: 0 | inactive: 0 | inactive: 0 | inactive: 0 | inactive: 0 | inactive: 0 | inactive: 0 | inactive: 0 | inactive: 0 | inactive: 0 | inactive: 0 | inactive: 0 | inactive: 0 | inactive: 0 | inactive: 0 | inactive: 0 | inactive: 0 | inactive: 0 | inactive: 0 | inactive: 0
3 | C[C@@H]1COCCN1c1cc(C2([S@](C)(=N)=O)CC2)nc(-c2cc[nH]c3nccc2-3)n1 [Ceralasertib] (2.5 µM) | inactive: 0 | inactive: 0 | inactive: 0 | inactive: 0 | inactive: 0 | inactive: 0 | inactive: 0 | inactive: 0 | inactive: 0 | inactive: 0 | inactive: 0 | inactive: 0 | inactive: 0 | inactive: 0 | inactive: 0 | inactive: 0 | inactive: 0 | inactive: 0 | inactive: 0 | inactive: 0
